# Source: US20240254085A1, “CHELATORS FOR RADIOMETALS AND METHODS OF MAKING AND USING SAME” (The University of British Columbia, priority 2021, published 2024)
# “And” between values parts separate entries of the source, which are not always exact repeats. Identical values can stand only once.
# Experiments:
# [1] = Concentration-dependent radiolabelling with [^111In]In^3+; conditions: 10 min; for molar activity: RT
# [2] = Concentration-dependent radiolabelling with [^155Tb]Tb^3+; conditions: 10 min; for molar activity: RT; for ligand concentration at which quantitative RCC is achieved: ambient temperature
# [3] = Concentration-dependent radiolabelling and molar activity study with [^177Lu]Lu^3+; conditions: for molar activity: 10 min
# [4] = Concentration-dependent radiolabelling with [^225Ac]Ac^3+; conditions: 10 min; for molar activity: RT; for ligand concentration at which quantitative RCC is achieved: ambient temperature
# [5] = Concentration-dependent radiolabelling with [^44Sc]Sc^3+; conditions: NaOAc (0.1 M, pH 4.5), RT, 10 min
Compound,molar activity [1],molar activity [2],"molar activity ([3]; [^177Lu]Lu^3+, RT)",molar activity [4],"radiolabelling with [^44Sc]Sc^3+ (RCY/RCC, in words) [5]",ligand concentration at which quantitative RCC is achieved ([1]; ambient temperature),ligand concentration at which quantitative RCC is achieved [2],"highest molar activity ([3]; [^177Lu]LuCl3 (20 MBq) in NH4OAc (0.5 M, pH 6.0) at RT, 10 minutes)","ligand concentration at which quantitative RCC/RCY is achieved ([3]; [^177Lu]Lu^3+, RT, 10 minutes)",ligand concentration at which quantitative RCC is achieved [4]
"O=C(O)CN(CCOCCN(CC(=O)O)Cc1cccc(C(=O)O)n1)Cc1cccc(C(=O)O)n1 [H4noneunpa, reference compound]",54 GBq/μmol,1.0 GBq/μmol,2.0 GBq/μmol,134 MBq/μmol,poor radiometal ion compatibility,,,,,
H4noneunpaX-Bn-NH2,,,,,quantitative RCC within 10 min. at RT,10^−6 M,10^−6 M,250 GBq/μmol,10^−3 to 10^−6 M and 10^−6 M,10^−6 M
H4noneunpaX-PEG2-Tyr^3-TATE,,,,,,,10^−5 M,,,10^−5 M
H4noneunpaX-Ahx-Tyr^3-TATE,,,,,,,10^−5 M,,,10^−5 M
O=C(O)CN(CCOCCN(Cc1cccc(C(=O)O)n1)Cc1cccc(C(=O)O)n1)CC(=O)O [H4noneunpaX],54 GBq/μmol,1.0 GBq/μmol,2.0 GBq/μmol,134 MBq/μmol,poor radiometal ion compatibility,,,,,
